Consider 28 variants from the supplement of paper PMC7125110.

± gives the standard error. The uncertainty is large for many entries.

B1: glmS ribozyme (parent)
chain: AUAAAAGCGCCAGAACUACAGAAAUGUAGUUGACGAGGAGGAGGUUUAUCGAAUUUUCGGCGGAUGCCUCCAAA

The variants in one data set derive from B1. The data set can be described thus: KM; higher = weaker cofactor use; RNA array. The settings on record: with glucosamine-6-phosphate. The method in brief: (§1)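 Glucosamine-6-phosphate in HEPES/KCl/Mg(OAc)2 buffer, at 40 μM to 10 mM, was flowed over barcoded ribozyme variants transcribed in situ by E. coli RNA polymerase on sequenced MiSeq chips. Tracking was through a hybridised Cy3 probe at 37 °C. kobs, kcat and KM came from exponential decay fits and weighted Michaelis–Menten fits of normalised per-tile medians.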
Take AUAAAAGCGCCAGAACUACAGAAAUGUAGUUGACGACGAGGAGGUUUAUCGAAUUUUCGGCGGAGGCCUCCAAA [G37C U65G]: the KM is 661 ± 470 µM.

For the variant AUAAAAGCGCCAGAACUACAGAAAUGUAGUUAACGAGGAGGAGGUUUAUCGAAUUUUCGGCGGAUUCCUCCAAA [G32A G66U], the KM stood at 4000 ± 2500 µM.

As for AUAAAAGCGCCAGAACUACAGAAAUGUAGUUGACGAAGAGUAGGUUUAUCGAAUUUUCGGCGGAUGCCUCCAAA [G37A G41U], the KM was 749 ± 510 µM.

For AUAAAAGCGCCAGAACUACAGAAAUGUAGUUGACGUUGAGGAGGUUUAUCGAAUUUUCGGCGGAUGCCUCCAAA [A36U G37U], the Michaelis-Menten constant (KM) worked out at 21.7 ± 19 µM.

In the case of AUAAAAGCGCCAGAACUACAGAAAUGUAGUUGACGACGAGGAGGUUUAGCGAAUUUUCGGCGGAUGCCUCCAAA [G37C U49G], the KM turned out to be 3030 ± 2600 µM.

Turning to AUAAAAGCGCCAGAACUACAGAAAUGUAGUUGACGAGGCGGAGGUUUGUCGAAUCUUCGGCGGAUGCCUCCAAA [A39C A48G U55C], the Michaelis constant (KM) is 12400 ± 1500 µM.

As to AUAAAAGCGCCAGAACUACAGAAAUGUAGUGGACGAGGAGGAGGUUUAUUGAAUUUUCGGCGGAUGCCUCCAAA [U31G C50U], the Michaelis-Menten constant (KM) was found to be 93.6 ± 52 µM.

Take AUAAAAGCGCCAGAACUACAGAAAUGUAGUUAACGAGGAGGAGGUUUAUCGAAUUUUCGGCGGAAGCCUCCAAA [G32A U65A]: the Michaelis-Menten constant (KM) worked out at 4120 ± 2200 µM.

On to AUAAAAGCGCCAGAACUACAGAAAUGUAGUUGACCAGGAGGAGGUUUAUCGAAUUUUCGGCGGAGGCCUCCAAA [G35C U65G], for which the KM was 1500 ± 360 µM.

Consider AUAAAAGCGCCAGAACUACAGAAAUGUAGUGGACGAGGAGGAGGUUUAUCGAAUUGUCGGCGGAUGUCUCCAAA [U31G U56G C67U], for which the KM was 2910 ± 800 µM.

In the case of AUAAAAGCGCCAGAACUACAGAAAUGUAGUUGUCGAGGAGGAGGUUUAUCGAAUUUUCGGUGGAUGCCUCCAAA [A33U C61U], the Michaelis constant (KM) is 49 ± 39 µM.

Turning to AUAAAAGCGCCAGAACUACAGAAAUGUAGUUGACAAGGAGGAGGUUUAUGGAAUUUUCGGCGGAUGCCACCAAA [G35A C50G U69A], the KM stood at 30.8 ± 23 µM.

As for AUAAAAGCGCCAGAACUACAGAAAUGUAGUUAACGAGGAGGAGGUUUAUCGAAUUUUCGGCGGAUGCCUGCAAA [G32A C70G], the KM amounted to 314 ± 180 µM.

In the case of AUAAAAGCGCCAGAACUACAGAAAUGUAGUUCACGAGGAGGAGGUUUAUCGAAUUUUCAGCGGAUGCCUCCAAA [G32C G59A], the KM stood at 1370 ± 690 µM.

Regarding AUAAAAGCGCCAGAACUACAGAAAUGUAGUUGACGAAGAGGAGGUUUAUCGAUUUUUCGGCGGAUGCCUCUAAA [G37A A53U C71U], the Michaelis constant (KM) is 1320 ± 1100 µM.

With AUAAAAGCGCCAGAACUACAGAAAUGUAGUUGGCGACGAGGAGGUUUAUCGAAUUUUCGGCGGAUGCCUCCAAA [A33G G37C], the Michaelis constant (KM) was determined as 1520 ± 780 µM.

For the variant AUAAAAGCGCCAGAACUACAGAAAUGUAGUUGACGAAGAGGAGUUUUAUCGAUUUUUCGGCGGAUGCCUCCAAA [G37A G44U A53U], the Michaelis constant (KM) came to 2030 ± 1800 µM.

Consider AUAAAAGCGCCAGAACUACAGAAAUGUAGUUGACGAAGAGGUGGUUUAUCGAAUUUUCGGCGGAUGCCUCCAAA [G37A A42U], for which the KM came out at 2220 ± 480 µM.

As for AUAAAAGCGCCAGAACUACAGAAAUGUAGUUGACGAGGUGGAGGUUUAUCGGAUUUUCGGCGGAUGCCUCCAAA [A39U A52G], the Michaelis constant (KM) was 4750 ± 800 µM.

AUAAAAGCGCCAGAACUACAGAAAUGUAGUUGUCGAGGACGAGGUUUAUCGAAUUUUCGGCGGAUGCCUCCAAA [A33U G40C]: the KM was 16000 ± 3900 µM.

AUAAAAGCGCCAGAACUACAGAAAUGUAGUUGACGAAGAGGAGGUUUAUCGAAUUUUCGGCAGAUGCCUCCAAA [G37A G62A]: the Michaelis constant (KM) amounted to 62.6 ± 53 µM.

Consider AUAAAAGCGCCAGAACUACAGAAAUGUAGUUGUCGAGGAGGAGGUUGAUCGAAUUUUCGGCGGAUGCCUCCAAA [A33U U47G], for which the KM is 682 ± 350 µM.

As to AUAAAAGCGCCAGAACUACAGAAAUGUAGUUCACGAGGAGGAGGUUUAUCGGAUUUUCGGCGGAUGCCUCCAAA [G32C A52G], the KM amounted to 7100 ± 4400 µM.

For AUAAAAGCGCCAGAACUACAGAAAUGUAGUUGACGCGCAGGAGGUUUAUCGAAUUUUCGGCGGAUGCCUCCAAA [A36C G38C], the Michaelis-Menten constant (KM) turned out to be 43.6 ± 31 µM.

AUAAAAGCGCCAGAACUACAGAAAUGUAGUUAACGAGGAGGAGGUUUAUCGCAUUUUCGGCGGAUGCCUCCAAA [G32A A52C]: the Michaelis constant (KM) is 128 ± 28 µM.

On to AUAAAAGCGCCAGAACUACAGAAAUGUAGUUGAAGAGGAGGAGGAUUAUCUAAUUUUCGGCGGAUGCCUCCAAA [C34A U45A G51U], for which the Michaelis constant (KM) amounted to 1500 ± 830 µM.

In the case of AUAAAAGCGCCAGAACUACAGAAAUGUAGUUGACGAGUAGGAGGUUUAUCGAAUUUUCGGCGGAUGCCUCCAAA [G38U], the Michaelis constant (KM) came to 54.5 ± 39 µM.

As for AUAAAAGCGCCAGAACUACAGAAAUGUAGUUGACGAGGGGGAGGUUUAUCGAAUUUUCAGCGGAUGCCUCCAAA [A39G G59A], the KM stood at 2250 ± 1700 µM.

Variants of B1 are the subject of the next data set. Description: self-cleavage kobs at 640 uM GlcN6P; higher = faster cleavage; RNA array. The settings on record: with glucosamine-6-phosphate. An outline of the steps:
as §1
Consider AUAAAAGCGCCAGAACUACAGAAAUGUAGUGGACGAGGAGGAGGUUUAUUGAAUUUUCGGCGGAUGCCUCCAAA [U31G C50U], for which the “self-cleavage kobs at 640 uM GlcN6P” value came to 1.88e-05 ± 1.6e-05 s⁻¹.

As for AUAAAAGCGCCAGAACUACAGAAAUGUAGUUGUCGAGGAGGAGGUUGAUCGAAUUUUCGGCGGAUGCCUCCAAA [A33U U47G], the “self-cleavage kobs at 640 uM GlcN6P” value is 1.56e-05 ± 1.2e-05 s⁻¹.

Another data set covers variants of B1. The data set can be described thus: self-cleavage kobs at 2500 uM GlcN6P; higher = faster cleavage; RNA array. Particulars: with glucosamine-6-phosphate. The method in brief:
as §1
Consider AUAAAAGCGCCAGAACUACAGAAAUGUAGUGGACGAGGAGGAGGUUUAUUGAAUUUUCGGCGGAUGCCUCCAAA [U31G C50U], for which the “self-cleavage kobs at 2500 uM GlcN6P” value was determined as 2.27e-05 ± 1.2e-05 s⁻¹.

The variants in a further data set derive from B1. The data set can be described thus: self-cleavage kobs at 10000 uM GlcN6P; higher = faster cleavage; RNA array. Particulars: with glucosamine-6-phosphate. An outline of the steps: as §1
Take AUAAAAGCGCCAGAACUACAGAAAUGUAGUGGACGAGGAGGAGGUUUAUUGAAUUUUCGGCGGAUGCCUCCAAA [U31G C50U]: the “self-cleavage kobs at 10000 uM GlcN6P” value was determined as 1.96e-05 ± 1.7e-05 s⁻¹.

Regarding AUAAAAGCGCCAGAACUACAGAAAUGUAGUUGUCGAGGACGAGGUUUAUCGAAUUUUCGGCGGAUGCCUCCAAA [A33U G40C], the “self-cleavage kobs at 10000 uM GlcN6P” value amounted to 1.98e-05 ± 1e-05 s⁻¹.

On to AUAAAAGCGCCAGAACUACAGAAAUGUAGUUCACGAGGAGGAGGUUUAUCGGAUUUUCGGCGGAUGCCUCCAAA [G32C A52G], for which the “self-cleavage kobs at 10000 uM GlcN6P” value came to 1.14e-05 ± 1e-05 s⁻¹.

In the next data set the parent is B1. The data set can be described thus: self-cleavage kobs at 40 uM GlcN6P; higher = faster cleavage; RNA array. Particulars: with glucosamine-6-phosphate. The method in brief: as §1
With AUAAAAGCGCCAGAACUACAGAAAUGUAGUGGACGAGGAGGAGGUUUAUCGAAUUGUCGGCGGAUGUCUCCAAA [U31G U56G C67U], the “self-cleavage kobs at 40 uM GlcN6P” value was determined as 1.32e-05 ± 1e-05 s⁻¹.

As for AUAAAAGCGCCAGAACUACAGAAAUGUAGUUGACGAGGUGGAGGUUUAUCGGAUUUUCGGCGGAUGCCUCCAAA [A39U A52G], the “self-cleavage kobs at 40 uM GlcN6P” value came to 1.2e-05 ± 9.4e-06 s⁻¹.

Variants of B1 are the subject of a further data set. The data set can be described thus: self-cleavage kobs at 160 uM GlcN6P; higher = faster cleavage; RNA array. The settings on record: with glucosamine-6-phosphate. An outline of the steps: as §1
With AUAAAAGCGCCAGAACUACAGAAAUGUAGUUGAAGAGGAGGAGGAUUAUCUAAUUUUCGGCGGAUGCCUCCAAA [C34A U45A G51U], the “self-cleavage kobs at 160 uM GlcN6P” value amounted to 2.71e-05 ± 2.3e-05 s⁻¹.

The KM is the substrate concentration at which the rate is half of its maximum.
